According to the supplement of paper PMC10849652:
The list shows a part of the results.

Amino acid sequences for entries named in this document (tags omitted). A change or cut given only in a name is not applied to a line headed by its entry.
UniProt Q9UJ14: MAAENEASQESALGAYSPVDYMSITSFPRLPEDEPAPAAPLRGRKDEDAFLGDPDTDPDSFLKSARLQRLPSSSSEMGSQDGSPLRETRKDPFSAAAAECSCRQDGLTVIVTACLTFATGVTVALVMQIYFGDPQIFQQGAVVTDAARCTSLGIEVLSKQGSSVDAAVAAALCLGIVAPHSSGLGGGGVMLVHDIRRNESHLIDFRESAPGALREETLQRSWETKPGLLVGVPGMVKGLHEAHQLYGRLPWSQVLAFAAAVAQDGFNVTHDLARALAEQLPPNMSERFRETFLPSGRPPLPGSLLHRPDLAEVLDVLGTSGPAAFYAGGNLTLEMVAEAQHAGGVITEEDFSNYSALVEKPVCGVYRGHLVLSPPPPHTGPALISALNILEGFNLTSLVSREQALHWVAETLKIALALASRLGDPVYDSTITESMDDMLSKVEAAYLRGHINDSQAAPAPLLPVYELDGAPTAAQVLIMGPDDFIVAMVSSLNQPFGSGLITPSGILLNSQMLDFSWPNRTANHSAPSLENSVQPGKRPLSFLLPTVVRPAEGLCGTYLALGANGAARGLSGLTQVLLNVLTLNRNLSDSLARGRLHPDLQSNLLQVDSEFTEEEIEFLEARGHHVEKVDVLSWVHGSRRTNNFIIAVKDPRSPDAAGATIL
UniProt Q9NS18: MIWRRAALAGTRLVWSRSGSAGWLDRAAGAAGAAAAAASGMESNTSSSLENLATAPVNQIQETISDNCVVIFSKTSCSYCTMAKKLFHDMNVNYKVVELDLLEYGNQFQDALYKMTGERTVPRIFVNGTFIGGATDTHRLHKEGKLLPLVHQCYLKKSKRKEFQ
UniProt Q8IVV7: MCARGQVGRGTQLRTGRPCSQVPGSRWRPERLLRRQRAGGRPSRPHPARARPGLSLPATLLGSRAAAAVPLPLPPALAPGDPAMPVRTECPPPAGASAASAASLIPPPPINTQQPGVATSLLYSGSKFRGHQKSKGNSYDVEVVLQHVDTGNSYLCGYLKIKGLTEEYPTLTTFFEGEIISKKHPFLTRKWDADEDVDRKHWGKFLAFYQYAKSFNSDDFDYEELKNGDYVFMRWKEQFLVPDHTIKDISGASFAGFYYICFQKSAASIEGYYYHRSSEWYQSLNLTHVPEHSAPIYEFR
UniProt Q96EK6: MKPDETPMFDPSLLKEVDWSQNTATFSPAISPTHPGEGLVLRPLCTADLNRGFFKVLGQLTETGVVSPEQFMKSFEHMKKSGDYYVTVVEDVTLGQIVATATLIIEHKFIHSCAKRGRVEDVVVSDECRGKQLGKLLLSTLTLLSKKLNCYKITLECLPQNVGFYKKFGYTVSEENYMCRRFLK
UniProt B7ZAQ6: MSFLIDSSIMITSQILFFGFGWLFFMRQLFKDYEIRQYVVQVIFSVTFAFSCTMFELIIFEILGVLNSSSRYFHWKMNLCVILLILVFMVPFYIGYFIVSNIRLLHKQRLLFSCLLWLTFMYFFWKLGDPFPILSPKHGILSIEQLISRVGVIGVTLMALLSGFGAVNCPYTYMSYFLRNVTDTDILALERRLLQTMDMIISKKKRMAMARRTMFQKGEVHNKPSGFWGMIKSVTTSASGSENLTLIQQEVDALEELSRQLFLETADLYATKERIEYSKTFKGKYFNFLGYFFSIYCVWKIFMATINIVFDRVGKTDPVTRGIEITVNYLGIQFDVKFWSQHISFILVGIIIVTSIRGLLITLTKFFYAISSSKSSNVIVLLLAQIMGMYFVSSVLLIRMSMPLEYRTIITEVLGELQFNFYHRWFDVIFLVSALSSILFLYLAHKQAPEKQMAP
UniProt O75496: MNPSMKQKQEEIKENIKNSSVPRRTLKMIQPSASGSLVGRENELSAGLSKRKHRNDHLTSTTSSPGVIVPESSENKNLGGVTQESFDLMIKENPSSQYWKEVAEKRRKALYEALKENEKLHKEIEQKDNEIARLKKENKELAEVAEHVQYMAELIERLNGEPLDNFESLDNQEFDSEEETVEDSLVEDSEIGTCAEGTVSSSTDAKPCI
UniProt P36959: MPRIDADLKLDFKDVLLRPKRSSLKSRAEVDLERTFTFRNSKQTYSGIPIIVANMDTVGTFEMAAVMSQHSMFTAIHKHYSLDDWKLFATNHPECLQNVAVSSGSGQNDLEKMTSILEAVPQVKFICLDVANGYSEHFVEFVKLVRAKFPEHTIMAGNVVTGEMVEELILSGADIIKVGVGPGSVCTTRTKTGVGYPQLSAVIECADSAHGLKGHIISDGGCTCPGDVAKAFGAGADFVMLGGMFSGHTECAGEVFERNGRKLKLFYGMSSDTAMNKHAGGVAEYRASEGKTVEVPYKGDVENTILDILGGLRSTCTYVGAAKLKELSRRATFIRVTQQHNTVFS
UniProt P15104, whole entry, looked up: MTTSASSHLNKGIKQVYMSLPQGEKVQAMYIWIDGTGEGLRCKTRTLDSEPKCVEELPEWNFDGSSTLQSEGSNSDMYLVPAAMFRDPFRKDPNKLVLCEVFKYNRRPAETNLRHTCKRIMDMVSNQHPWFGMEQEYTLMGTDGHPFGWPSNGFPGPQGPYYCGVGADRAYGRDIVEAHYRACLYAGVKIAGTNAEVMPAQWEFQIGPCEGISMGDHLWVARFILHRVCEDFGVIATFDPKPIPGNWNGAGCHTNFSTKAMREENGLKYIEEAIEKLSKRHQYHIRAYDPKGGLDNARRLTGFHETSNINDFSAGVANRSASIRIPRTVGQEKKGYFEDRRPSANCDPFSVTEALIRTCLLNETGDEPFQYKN
UniProt P16278: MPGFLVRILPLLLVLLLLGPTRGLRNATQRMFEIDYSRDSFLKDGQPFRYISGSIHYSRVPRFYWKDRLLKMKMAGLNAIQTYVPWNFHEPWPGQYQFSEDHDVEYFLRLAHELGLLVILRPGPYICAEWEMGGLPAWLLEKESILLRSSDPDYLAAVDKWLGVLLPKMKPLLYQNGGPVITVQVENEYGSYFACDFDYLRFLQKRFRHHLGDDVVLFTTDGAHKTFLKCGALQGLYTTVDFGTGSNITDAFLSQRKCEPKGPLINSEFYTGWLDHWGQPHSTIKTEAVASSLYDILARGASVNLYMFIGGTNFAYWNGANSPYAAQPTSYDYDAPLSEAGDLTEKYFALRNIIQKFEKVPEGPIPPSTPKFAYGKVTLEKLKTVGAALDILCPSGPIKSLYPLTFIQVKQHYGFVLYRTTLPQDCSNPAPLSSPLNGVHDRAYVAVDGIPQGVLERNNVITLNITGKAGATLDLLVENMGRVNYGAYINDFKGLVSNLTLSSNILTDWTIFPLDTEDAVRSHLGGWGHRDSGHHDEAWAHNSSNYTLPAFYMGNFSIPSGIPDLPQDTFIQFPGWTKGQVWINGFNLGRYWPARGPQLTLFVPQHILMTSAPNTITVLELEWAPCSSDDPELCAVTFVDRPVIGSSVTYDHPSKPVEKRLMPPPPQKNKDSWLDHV
UniProt P81274: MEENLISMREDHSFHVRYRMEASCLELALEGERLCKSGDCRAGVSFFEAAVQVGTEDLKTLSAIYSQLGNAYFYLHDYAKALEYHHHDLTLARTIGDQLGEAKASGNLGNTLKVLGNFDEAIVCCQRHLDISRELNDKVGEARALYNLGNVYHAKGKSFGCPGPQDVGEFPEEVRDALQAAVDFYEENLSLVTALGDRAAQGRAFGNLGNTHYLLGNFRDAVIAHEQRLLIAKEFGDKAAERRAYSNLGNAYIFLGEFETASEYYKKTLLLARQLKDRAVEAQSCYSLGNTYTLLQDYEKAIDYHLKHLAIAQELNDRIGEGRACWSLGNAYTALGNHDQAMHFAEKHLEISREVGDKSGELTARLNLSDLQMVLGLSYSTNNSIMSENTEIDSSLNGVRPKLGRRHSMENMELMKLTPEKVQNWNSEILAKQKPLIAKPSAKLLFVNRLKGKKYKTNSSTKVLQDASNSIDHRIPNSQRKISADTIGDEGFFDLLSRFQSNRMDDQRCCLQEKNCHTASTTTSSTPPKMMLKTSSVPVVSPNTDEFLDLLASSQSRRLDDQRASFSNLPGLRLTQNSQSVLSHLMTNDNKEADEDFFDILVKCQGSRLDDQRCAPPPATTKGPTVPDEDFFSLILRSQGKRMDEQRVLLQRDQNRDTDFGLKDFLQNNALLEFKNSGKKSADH
UniProt P62873, whole entry, looked up: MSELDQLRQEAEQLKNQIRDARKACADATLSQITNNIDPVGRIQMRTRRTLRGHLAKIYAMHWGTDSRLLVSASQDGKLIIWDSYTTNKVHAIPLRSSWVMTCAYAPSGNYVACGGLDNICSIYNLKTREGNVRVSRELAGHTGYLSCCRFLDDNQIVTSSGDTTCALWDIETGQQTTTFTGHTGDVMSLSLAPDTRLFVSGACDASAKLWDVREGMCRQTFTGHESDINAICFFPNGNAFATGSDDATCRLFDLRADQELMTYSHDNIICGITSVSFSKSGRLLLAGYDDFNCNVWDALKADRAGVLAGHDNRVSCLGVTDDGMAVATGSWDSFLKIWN
UniProt O60547: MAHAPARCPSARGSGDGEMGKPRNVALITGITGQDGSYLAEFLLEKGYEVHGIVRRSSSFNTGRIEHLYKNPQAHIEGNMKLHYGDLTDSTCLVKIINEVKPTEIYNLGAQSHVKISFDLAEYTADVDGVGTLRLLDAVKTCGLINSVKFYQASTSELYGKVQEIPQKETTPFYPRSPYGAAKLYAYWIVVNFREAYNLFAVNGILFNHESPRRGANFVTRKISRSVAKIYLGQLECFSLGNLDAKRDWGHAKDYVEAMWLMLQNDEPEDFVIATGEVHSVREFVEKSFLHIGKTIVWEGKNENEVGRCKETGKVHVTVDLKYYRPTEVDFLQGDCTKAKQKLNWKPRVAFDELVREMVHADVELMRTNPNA
UniProt Q86UL3: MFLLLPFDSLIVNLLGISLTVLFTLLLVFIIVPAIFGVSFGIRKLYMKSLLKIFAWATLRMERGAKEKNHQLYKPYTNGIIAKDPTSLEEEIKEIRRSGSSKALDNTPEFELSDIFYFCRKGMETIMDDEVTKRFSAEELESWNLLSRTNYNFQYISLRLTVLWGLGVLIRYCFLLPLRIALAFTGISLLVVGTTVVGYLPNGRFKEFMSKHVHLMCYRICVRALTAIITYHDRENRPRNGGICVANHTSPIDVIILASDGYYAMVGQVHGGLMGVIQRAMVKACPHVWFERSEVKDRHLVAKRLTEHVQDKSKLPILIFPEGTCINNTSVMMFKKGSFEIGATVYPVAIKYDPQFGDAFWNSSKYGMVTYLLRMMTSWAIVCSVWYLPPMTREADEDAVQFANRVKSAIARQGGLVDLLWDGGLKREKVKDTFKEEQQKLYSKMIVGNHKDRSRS
UniProt Q92990: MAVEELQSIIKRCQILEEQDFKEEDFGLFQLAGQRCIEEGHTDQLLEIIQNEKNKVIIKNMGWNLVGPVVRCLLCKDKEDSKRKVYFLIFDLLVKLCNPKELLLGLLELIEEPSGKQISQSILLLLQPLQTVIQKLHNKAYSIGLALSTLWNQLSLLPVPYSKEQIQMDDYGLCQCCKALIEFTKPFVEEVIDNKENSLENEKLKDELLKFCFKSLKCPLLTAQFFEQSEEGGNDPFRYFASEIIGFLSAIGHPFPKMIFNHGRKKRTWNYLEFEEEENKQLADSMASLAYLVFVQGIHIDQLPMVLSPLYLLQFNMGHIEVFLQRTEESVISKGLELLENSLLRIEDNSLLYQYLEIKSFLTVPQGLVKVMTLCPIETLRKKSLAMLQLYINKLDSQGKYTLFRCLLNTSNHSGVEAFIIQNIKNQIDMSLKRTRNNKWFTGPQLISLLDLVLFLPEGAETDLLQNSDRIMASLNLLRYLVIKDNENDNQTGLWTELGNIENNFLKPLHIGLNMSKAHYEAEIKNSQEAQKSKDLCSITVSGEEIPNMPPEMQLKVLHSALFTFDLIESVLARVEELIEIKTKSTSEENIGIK
UniProt Q13098: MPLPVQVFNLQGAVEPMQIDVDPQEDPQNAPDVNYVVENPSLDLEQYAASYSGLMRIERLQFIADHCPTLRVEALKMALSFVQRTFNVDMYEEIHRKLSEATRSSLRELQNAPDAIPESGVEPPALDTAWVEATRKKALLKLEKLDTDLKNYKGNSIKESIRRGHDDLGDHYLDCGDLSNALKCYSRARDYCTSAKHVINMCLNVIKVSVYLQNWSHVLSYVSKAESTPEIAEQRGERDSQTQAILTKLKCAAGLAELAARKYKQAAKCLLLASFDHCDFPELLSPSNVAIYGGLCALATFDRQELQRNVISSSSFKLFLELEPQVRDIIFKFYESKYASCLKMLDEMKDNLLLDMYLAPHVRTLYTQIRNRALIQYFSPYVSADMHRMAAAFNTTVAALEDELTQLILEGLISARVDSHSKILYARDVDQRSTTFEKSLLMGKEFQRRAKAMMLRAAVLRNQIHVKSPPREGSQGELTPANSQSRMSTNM

Experiments:
Assay in all cases: log2 fold change, soluble protein after heating vs DMSO (PISA); higher = thermal stabilisation; K562 lysate, 10 uM; active = over 0.2 and 3.5 SD of the protein, either way, in both replicates (recomputed)
lapatinib = compound: CS(=O)(=O)CCNCc1ccc(-c2ccc3ncnc(Nc4ccc(OCc5cccc(F)c5)c(Cl)c4)c3c2)o1 [lapatinib]
Summary of the method: (§1)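 Following dounce homogenisation of K562 pellets in PBS pH 7.4 with 1 mM MgCl2, crude extract at 1 mg/mL protein was incubated for 30 min with 10 μM compound. Aliquots were then heated for 3 min over 48°C-58°C and pooled, NP-40 was added to 0.5% at 4°C, and soluble protein was recovered as the supernatant at 21,000xg for 90 min. Channel-sum-equalised TMTpro 16plex LC-MS/MS quantified this protein. Each value, from duplicates, is a log-two fold change in thermal stability relative to solvent controls.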

pictilisib = compound: CS(=O)(=O)N1CCN(Cc2cc3nc(-c4cccc5[nH]ncc45)nc(N4CCOCC4)c3s2)CC1 [pictilisib]
Summary of the method: as §1

crizotinib = compound: C[C@@H](Oc1cc(-c2cnn(C3CCNCC3)c2)cnc1N)c1c(Cl)ccc(F)c1Cl [crizotinib]
Summary of the method: as §1

[1] = compound: C[C@H](C1=CC=C(C=C1)C(=O)NC2=C3C=CNC3=NC=C2)N
Summary of the method: as §1

duvelisib = compound: C[C@H](Nc1ncnc2nc[nH]c12)c1cc2cccc(Cl)c2c(=O)n1-c1ccccc1 [duvelisib]
Summary of the method: as §1

gandotinib = compound: Cc1cc(Nc2cc(CN3CCOCC3)c3nc(C)c(Cc4ccc(Cl)cc4F)n3n2)n[nH]1 [gandotinib]
Summary of the method: as §1

tozasertib = compound: Cc1cc(Nc2cc(N3CCN(C)CC3)nc(Sc3ccc(NC(=O)C4CC4)cc3)n2)n[nH]1 [tozasertib]
Summary of the method: as §1

doramapimod = compound: Cc1ccc(-n2nc(C(C)(C)C)cc2NC(=O)Nc2ccc(OCCN3CCOCC3)c3ccccc23)cc1 [doramapimod]
Summary of the method: as §1

bafetinib = compound: Cc1ccc(NC(=O)c2ccc(CN3CC[C@H](N(C)C)C3)c(C(F)(F)F)c2)cc1Nc1nccc(-c2cncnc2)n1 [bafetinib]
Summary of the method: as §1

[2] = compound: Cc1cccc(CC(=O)N2CCc3c2ccc(-c2cn(C)c4ncnc(N)c24)c3F)n1
Summary of the method: as §1

nilotinib = compound: Cc1cn(-c2cc(NC(=O)c3ccc(C)c(Nc4nccc(-c5cccnc5)n4)c3)cc(C(F)(F)F)c2)cn1 [nilotinib]
Summary of the method: as §1

[3] = compound: Cc1nc(Nc2n[nH]c3c2CN(C(=O)N[C@H](CN(C)C)c2ccccc2)C3(C)C)c2sccc2n1
Summary of the method: as §1

dasatinib = compound: Cc1nc(Nc2ncc(C(=O)Nc3c(C)cccc3Cl)s2)cc(N2CCN(CCO)CC2)n1 [dasatinib]
Summary of the method: as §1

[4] = compound: Cc1ncc(-c2ccnc(Nc3ccc(S(C)(=O)=O)cc3)n2)n1C(C)C
Summary of the method: as §1

[5] = compound: Cn1cc(-c2ccc3c(c2)CCN3C(=O)Cc2cccc(C(F)(F)F)c2)c2c(N)ncnc21
Summary of the method: as §1

quisinostat = compound: Cn1cc(CNCC2CCN(c3ncc(C(=O)NO)cn3)CC2)c2ccccc21 [quisinostat]
Summary of the method: as §1

tipifarnib = compound: Cn1cncc1[C@@](N)(c1ccc(Cl)cc1)c1ccc2c(c1)c(-c1cccc(Cl)c1)cc(=O)n2C [tipifarnib]
Summary of the method: as §1

[6] = compound: NC(=O)Nc1cc(-c2cccc(F)c2)sc1C(=O)N[C@H]1CCCNC1
Summary of the method: as §1

[7] = compound: NC(=O)c1cnc(N[C@@H]2CCCC[C@@H]2N)nc1Nc1cccc(-n2nccn2)c1
Summary of the method: as §1

[8] = compound: NC1(c2ccc(-c3nc4ccn5c(=O)[nH]nc5c4cc3-c3ccccc3)cc2)CCC1
Summary of the method: as §1

Measured: log2 fold change

GLA (UniProt P06280)
inactive: lapatinib -0.006 | pictilisib 0.037 | crizotinib -0.012 | [1] 0.061 | duvelisib 0.011 | gandotinib 0.014 | tozasertib 0.015 | doramapimod -0.032 | bafetinib -0.018 | [2] -0.018 | nilotinib 0.011 | [3] -0.038 | dasatinib 0.052 | [4] 0.01 | [5] 0.093 | quisinostat 0.025 | tipifarnib 0.022 | [6] -0.004 | [7] 0.011 | [8] -0.022

GGT7 (UniProt Q9UJ14)
inactive: lapatinib -0.024 | pictilisib -0.007 | crizotinib 0.01 | [1] 0.068 | duvelisib 0.011 | gandotinib 0.033 | tozasertib -0.03 | doramapimod -0.054 | bafetinib -0.09 | [2] 0.042 | nilotinib -0.061 | [3] -0.023 | dasatinib -0.083 | [4] 0.014 | [5] -0.012 | quisinostat 0.092 | tipifarnib -0.008 | [6] 0.071 | [7] 0.007 | [8] 0.02

GLRX2 (UniProt Q9NS18)
inactive: lapatinib 0.023 | pictilisib -0.041 | crizotinib 0.061 | [1] 0.13 | duvelisib 0.023 | gandotinib -0.06 | tozasertib -0.082 | doramapimod -0.039 | bafetinib -0.019 | [2] -0.18 | nilotinib 0.051 | [3] -0.032 | dasatinib 0.031 | [4] 0.012 | [5] 0.038 | quisinostat -0.001 | tipifarnib -0.045 | [6] -0.014 | [7] -0.008 | [8] 0.009

Copied from the results shown (2 entries):
GLA (UniProt P06280)
inactive: lapatinib -0.006 | pictilisib 0.037 | crizotinib -0.012 | [1] 0.061 | duvelisib 0.011 | gandotinib 0.014 | tozasertib 0.015 | doramapimod -0.032 | bafetinib -0.018 | [2] -0.018 | nilotinib 0.011 | [3] -0.038 | dasatinib 0.052 | [4] 0.01 | [5] 0.093 | quisinostat 0.025 | tipifarnib 0.022 | [6] -0.004 | [7] 0.011 | [8] -0.022

GGT7 (UniProt Q9UJ14)
inactive: lapatinib -0.024 | pictilisib -0.007 | crizotinib 0.01 | [1] 0.068 | duvelisib 0.011 | gandotinib 0.033 | tozasertib -0.03 | doramapimod -0.054 | bafetinib -0.09 | [2] 0.042 | nilotinib -0.061 | [3] -0.023 | dasatinib -0.083 | [4] 0.014 | [5] -0.012 | quisinostat 0.092 | tipifarnib -0.008 | [6] 0.071 | [7] 0.007 | [8] 0.02

Next entries.

GID4 (UniProt Q8IVV7)
inactive: lapatinib -0.045 | pictilisib -0.035 | crizotinib -0.043 | [1] -0.022 | duvelisib 0.079 | gandotinib 0.012 | tozasertib -0.014 | doramapimod -0.011 | bafetinib 0.03 | [2] -0.031 | nilotinib 0.021 | [3] 0.035 | dasatinib 0.063 | [4] 0.08 | [5] 0 | quisinostat 0.02 | tipifarnib 0.001 | [6] 0.025 | [7] 0.016 | [8] 0.015

GNPNAT1 (UniProt Q96EK6)
inactive: lapatinib 0.022 | pictilisib 0.035 | crizotinib -0.005 | [1] 0.023 | duvelisib -0.002 | gandotinib -0.038 | tozasertib 0.073 | doramapimod 0.018 | bafetinib 0.023 | [2] -0.094 | nilotinib 0.061 | [3] 0.004 | dasatinib -0.065 | [4] 0.007 | [5] -0.046 | quisinostat 0.069 | tipifarnib -0.007 | [6] -0.051 | [7] -0.028 | [8] -0.043

GPR89A (UniProt B7ZAQ6)
inactive: lapatinib -0.168 | pictilisib 0.028 | crizotinib -0.105 | [1] -0.003 | duvelisib -0.047 | gandotinib -0.285 | tozasertib 0.069 | doramapimod 0.018 | bafetinib -0.027 | [2] 0.088 | nilotinib -0.049 | [3] -0.043 | dasatinib -0.128 | [4] 0.018 | [5] -0.101 | quisinostat -0.098 | tipifarnib -0.074 | [6] 0.054 | [7] 0.033 | [8] -0.088

GMNN (UniProt O75496)
inactive: lapatinib -0.033 | pictilisib -0.056 | crizotinib 0.016 | [1] -0.033 | duvelisib 0.008 | gandotinib 0.044 | tozasertib 0.021 | doramapimod -0.014 | bafetinib -0.004 | [2] -0.028 | nilotinib -0.03 | [3] -0.025 | dasatinib 0.014 | [4] 0.007 | [5] 0.014 | quisinostat -0.028 | tipifarnib 0.001 | [6] 0.017 | [7] 0.012 | [8] 0.032

GMPR (UniProt P36959)
inactive: lapatinib 0.012 | pictilisib -0.029 | crizotinib 0.05 | [1] 0.071 | duvelisib 0.034 | gandotinib -0.01 | tozasertib -0.004 | doramapimod -0.011 | bafetinib -0.002 | [2] -0.079 | nilotinib -0.012 | [3] 0.012 | dasatinib -0.031 | [4] 0 | [5] 0.021 | quisinostat 0.063 | tipifarnib 0.019 | [6] 0.016 | [7] 0.009 | [8] 0.017

GLUL (UniProt P15104)
inactive: lapatinib 0.04 | pictilisib 0.015 | crizotinib 0.066 | duvelisib 0.019 | gandotinib -0.093 | tozasertib -0.026 | doramapimod 0.014 | bafetinib 0.013 | [2] -0.147 | nilotinib -0.008 | [3] -0.012 | dasatinib 0.054 | [4] -0.026 | [5] -0.002 | quisinostat 0.071 | tipifarnib 0.027 | [6] -0.032 | [7] 0.009 | [8] -0.003
active: [1] 0.213

GLB1 (UniProt P16278)
inactive: lapatinib -0.02 | pictilisib 0.001 | crizotinib -0.003 | [1] -0.017 | duvelisib 0.004 | gandotinib 0.012 | tozasertib -0.084 | doramapimod 0.016 | bafetinib -0.03 | [2] 0.008 | nilotinib -0.006 | [3] 0.03 | dasatinib -0.026 | [4] 0.023 | [5] 0.003 | quisinostat 0.03 | tipifarnib 0.017 | [6] -0.016 | [7] -0.011 | [8] -0.022

GPSM2 (UniProt P81274)
inactive: lapatinib -0.111 | pictilisib 0.013 | crizotinib -0.082 | [1] -0.313 | duvelisib -0.071 | gandotinib 0.252 | tozasertib 0.042 | doramapimod -0.014 | bafetinib -0.091 | [2] 0.244 | nilotinib -0.175 | [3] 0.125 | dasatinib 0.115 | [4] 0.255 | [5] 0.135 | quisinostat -0.299 | tipifarnib 0.043 | [6] 0.014 | [7] -0.188 | [8] 0.007

GNB1 (UniProt P62873)
inactive: lapatinib 0.054 | pictilisib -0.022 | crizotinib -0.106 | [1] -0.114 | duvelisib 0.003 | gandotinib 0.04 | tozasertib -0.023 | doramapimod 0.079 | bafetinib 0.123 | [2] 0.04 | nilotinib 0.075 | [3] 0.057 | dasatinib -0.078 | [4] 0.098 | [5] -0.029 | quisinostat 0.107 | tipifarnib 0.019 | [6] -0.137 | [7] -0.027 | [8] -0.018

GMDS (UniProt O60547)
inactive: lapatinib -0.019 | pictilisib -0.035 | crizotinib -0.01 | [1] 0.004 | duvelisib 0.012 | gandotinib -0.013 | tozasertib -0.016 | doramapimod 0.018 | bafetinib 0.001 | [2] -0.021 | nilotinib -0.023 | [3] 0.05 | dasatinib -0.043 | [4] -0.03 | [5] -0.013 | quisinostat -0.041 | tipifarnib 0.029 | [6] 0.038 | [7] -0.005 | [8] -0.029

GPAT4 (UniProt Q86UL3)
inactive: lapatinib -0.014 | pictilisib -0.014 | crizotinib 0.049 | [1] -0.092 | duvelisib 0.032 | gandotinib 0.062 | tozasertib 0.039 | doramapimod -0.017 | bafetinib -0.118 | [2] 0.104 | nilotinib 0.028 | [3] 0.048 | dasatinib 0.004 | [4] 0.004 | [5] -0.015 | quisinostat -0.012 | tipifarnib 0.019 | [6] -0.02 | [7] 0.014 | [8] -0.016

GLMN (UniProt Q92990)
inactive: lapatinib 0.014 | pictilisib -0.002 | crizotinib -0.01 | [1] -0.018 | duvelisib 0.035 | gandotinib 0 | tozasertib -0.003 | doramapimod 0.004 | bafetinib -0.018 | [2] 0.066 | nilotinib -0.002 | [3] 0.002 | dasatinib 0.012 | [4] -0.01 | [5] 0.016 | quisinostat -0.023 | tipifarnib 0.006 | [6] 0.022 | [7] 0.047 | [8] -0.009

GPS1 isoform 6 (UniProt Q13098)
inactive: lapatinib -0.007 | pictilisib -0.004 | crizotinib 0.018 | [1] -0.087 | duvelisib -0.004 | gandotinib 0.019 | tozasertib 0.015 | doramapimod -0.05 | bafetinib -0.003 | [2] 0.014 | nilotinib 0.015 | [3] 0.006 | dasatinib 0.02 | [4] 0.027 | [5] -0.003 | quisinostat -0.035 | tipifarnib 0.008 | [6] 0 | [7] 0.014 | [8] -0.033
